Some of the results follow.
Each sequence was assayed against OsWRKY34 (Oryza sativa, UniProt Q0JBA9 1-250) (assay: protein-binding microarray (RPBM); PBS, 2% BSA, 51.3 ng/ul salmon testes DNA, 50 uM zinc acetate, 200 nM TF, 25 C, 1 h; high values mean tight binding). Conditions: protein: recombinant; tags: N-terminal polyhistidine and DsRed monomer fusion (pET32a); label: CyDye5-dUTP incorporated in the synthesized complementary strand; 3' TTTTT single-stranded linker to array surface; dsDNA, one strand shown.
Summary of the method: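 The binding signal is fluorescence intensity per feature, in arbitrary units, read on an Axon 4000B scanner. Polyhistidine- and DsRed-tagged transcription factors (N-terminal fusions) from E. coli BL21-CodonPlus were purified on Ni–NTA and applied at 200 nM for 1 h at 25 °C to a double-stranded, BSA-blocked custom Agilent array in buffer with 50 µM zinc acetate.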

The chains behind the UniProt entries cited, without tags or fusion partners.
UniProt Q0JBA9, entry or part of it: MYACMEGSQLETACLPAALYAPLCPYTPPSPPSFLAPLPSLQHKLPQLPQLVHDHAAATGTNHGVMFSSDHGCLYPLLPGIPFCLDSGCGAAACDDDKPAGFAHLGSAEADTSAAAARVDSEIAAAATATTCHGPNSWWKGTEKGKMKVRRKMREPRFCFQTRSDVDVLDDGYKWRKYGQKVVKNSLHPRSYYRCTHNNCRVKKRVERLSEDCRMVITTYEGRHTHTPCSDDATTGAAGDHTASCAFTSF

Row | Sequence | binding signal
1 | ACTCCTCTTGCACTCCAGTAACTCGCTTCTGTTTTGACCCCGGAGTCACCTAGTGCAG | 8490 fluorescence intensity (a.u.)
2 | GGGCGGGTCAAGGCCGTCGCGATCACGCACCGCAACCTCACGGAGTCACCTAGTGCAG | 8750 fluorescence intensity (a.u.)
3 | ATACTGAAAACCTGCTAGTTTGTTGCTCTATTCTACAGCTCGGAGTCACCTAGTGCAG | 8990 fluorescence intensity (a.u.)
4 | ACTCCGCCCGCAACCTCCGCTCTCTGTCTCGCGGTGACCTCGGAGTCACCTAGTGCAG | 9660 fluorescence intensity (a.u.)
5 | CTGAAGATGTAAGTGTGTTCAATCATGATTCCTTGTTTCTCGGAGTCACCTAGTGCAG | 8750 fluorescence intensity (a.u.)
6 | CGTGAGGAATGGGATTTTTATTTTGCTGGTTACTGTTTGACGGAGTCACCTAGTGCAG | 10000 fluorescence intensity (a.u.)
7 | ACTGGCCATTGCTCCTCTCCTCCCACTCTTCTTCTCCATCCGGAGTCACCTAGTGCAG | 8390 fluorescence intensity (a.u.)
8 | AGCGGAGGGGAGGGGATCCTGGTGCGTCTTCTTTCTGATTCGGAGTCACCTAGTGCAG | 11500 fluorescence intensity (a.u.)
9 | AGGCGATGCGAACCATGACTTTCGAACACACCCTTATTCTCGGAGTCACCTAGTGCAG | 8100 fluorescence intensity (a.u.)
10 | TCTGCCTTGAAGTGGTACCGTGGGTGGGAGGGTAGTTATGCGGAGTCACCTAGTGCAG | 11500 fluorescence intensity (a.u.)
11 | CACCGCCGCAGCCCAAGCCCACCACCACCACCGCCGCCGCCGGAGTCACCTAGTGCAG | 9060 fluorescence intensity (a.u.)
12 | GAATTTGTGCTCTGTGATGTGAATGTGGAATATTTTTGTGCGGAGTCACCTAGTGCAG | 11000 fluorescence intensity (a.u.)
13 | ATATCAACCCCACACCCTTGTTTACGCTTTTCATAAGCTACGGAGTCACCTAGTGCAG | 8110 fluorescence intensity (a.u.)
14 | TCTATCATCTCAAAGCTGATCGTTTTACAGTATATGATATCGGAGTCACCTAGTGCAG | 8350 fluorescence intensity (a.u.)
15 | CCGGATGGGGACTATGTTTGGAGGTGGGTGTTGGGAACCACGGAGTCACCTAGTGCAG | 9200 fluorescence intensity (a.u.)
16 | GCCATTTATTGCTCGTTCTTCACCTCTTCCGTCTTTGAGTCGGAGTCACCTAGTGCAG | 10000 fluorescence intensity (a.u.)
17 | CACTTGCTTTCACATATTTCCATCGTTAAATAGTACTGTACGGAGTCACCTAGTGCAG | 8940 fluorescence intensity (a.u.)
18 | TTTGGGGCGCGGGTGGGTGGCTGGGTGCGCGTCGATCGTGCGGAGTCACCTAGTGCAG | 10900 fluorescence intensity (a.u.)
19 | TCTTGTATGGAGTACTTATTTTTGTGTGATTAATTTTTTTCGGAGTCACCTAGTGCAG | 8180 fluorescence intensity (a.u.)
20 | ACCATCTGCCATTCCTGTTGGTGCTAGCTTATCTAACATTCGGAGTCACCTAGTGCAG | 8460 fluorescence intensity (a.u.)
21 | TCTTTCCTCTCTATCTCTCTTCGTTTTGTTTTTTCGCTTCCGGAGTCACCTAGTGCAG | 11700 fluorescence intensity (a.u.)

Some of the entries so far, in CSV form.
Row,Sequence,binding signal
17,CACTTGCTTTCACATATTTCCATCGTTAAATAGTACTGTACGGAGTCACCTAGTGCAG,8940 fluorescence intensity (a.u.)
18,TTTGGGGCGCGGGTGGGTGGCTGGGTGCGCGTCGATCGTGCGGAGTCACCTAGTGCAG,10900 fluorescence intensity (a.u.)
19,TCTTGTATGGAGTACTTATTTTTGTGTGATTAATTTTTTTCGGAGTCACCTAGTGCAG,8180 fluorescence intensity (a.u.)

Continuation.

Row | Sequence | binding signal
22 | ATGTAAGTTAAGTTGTAACTCCTACTCTCTCTTTTCTTCTCGGAGTCACCTAGTGCAG | 8110 fluorescence intensity (a.u.)
23 | AACGATGTGCACTCCTTCTCCGTCTCCTTCGTCTTCGCCACGGAGTCACCTAGTGCAG | 8980 fluorescence intensity (a.u.)
24 | CTCTTAAAATTTCTCTTTCTGCCTTTTCACATTTCTGGGGCGGAGTCACCTAGTGCAG | 11600 fluorescence intensity (a.u.)
25 | CTCTATGCGCTGCCTCATCCATTTCTGATTTCTCCTTTCTCGGAGTCACCTAGTGCAG | 12400 fluorescence intensity (a.u.)
26 | CACCACCGTCGTCGCCATGCTCCTTCCTTTCTTCGGCAACCGGAGTCACCTAGTGCAG | 8060 fluorescence intensity (a.u.)
27 | AGTGGGCAGAGTTTATATTAATAGTGTTCACATATGTAGACGGAGTCACCTAGTGCAG | 8150 fluorescence intensity (a.u.)
28 | GGCTATGCTACTACCCGCAGCGATTTTTTTACATTTTTTACGGAGTCACCTAGTGCAG | 8820 fluorescence intensity (a.u.)
29 | CGGTGATTGATTTCAGATTTGAGTGGTTGATTACAACCTTCGGAGTCACCTAGTGCAG | 9150 fluorescence intensity (a.u.)
30 | ATTACATGTTTTGCACTTCCTGTGTAATATTACTGGTTTTCGGAGTCACCTAGTGCAG | 8920 fluorescence intensity (a.u.)
31 | TATTAGCACTTCACCTGCTTCATTGTTTGTATTGACAAATCGGAGTCACCTAGTGCAG | 9520 fluorescence intensity (a.u.)
32 | GTTGAGTTGGATGGGGAATTGAAGTTGAATTTTCTGGAGACGGAGTCACCTAGTGCAG | 8200 fluorescence intensity (a.u.)
33 | ATCCCTCACTTGAACTTTTTTTCATTATCTCGAGCATAAGCGGAGTCACCTAGTGCAG | 9150 fluorescence intensity (a.u.)
34 | TTTTTTCTCTTCGCTGCTACCGAGTCTCTTCTGTTCTCTCCGGAGTCACCTAGTGCAG | 13700 fluorescence intensity (a.u.)
35 | GGTCTTGCTAGTTGGCCATGTGAGAGTGAGACCGGGTCTCCGGAGTCACCTAGTGCAG | 50700 fluorescence intensity (a.u.)
36 | TTCCGACTGCACTGATCCGCCCGCCCTTCTCTCGCTCTGCCGGAGTCACCTAGTGCAG | 10500 fluorescence intensity (a.u.)
37 | GGCCATCGCCATGTTCGTCTCCGTGCTGTCCTTCGTCGTCCGGAGTCACCTAGTGCAG | 14400 fluorescence intensity (a.u.)
38 | GAACCACTCCGTCCTCTCCTCGCCCACCGCCGCCGCCGCCCGGAGTCACCTAGTGCAG | 8960 fluorescence intensity (a.u.)
39 | AGAGGCGTTTTAGGTAGGAGTTCATTGTTGCCGGATTCCCCGGAGTCACCTAGTGCAG | 8060 fluorescence intensity (a.u.)
40 | AACCCTCCCGGCCCCGGAAATCCCACGAATCCGCAAACCACGGAGTCACCTAGTGCAG | 8200 fluorescence intensity (a.u.)
41 | TTTACAATTTTTTCATGCCCAAATTTTATGGGTTAAGCTACGGAGTCACCTAGTGCAG | 8080 fluorescence intensity (a.u.)
42 | TATACTTATATGCATACAATTTTCATATATCTATATTCCTCGGAGTCACCTAGTGCAG | 8290 fluorescence intensity (a.u.)

— publication PMC7819943, “Rice protein-binding microarrays: a tool to detect cis-acting elements near promoter regions in rice”
